Results as given in PubChem BioAssay AID504467 (National Center for Advancing Translational Sciences (NCATS), 2011).
In all, about 330,000 compounds went through this assay and about 7,700 (2.3%) were called active. Inconclusive means that the source gave no clear call. Such entries were picked first, then a sample of the others. Calls come from the whole dose curve; as a rule, active = well fitted inhibition curve with a large enough effect; inconclusive = small, poorly fitted or top-dose-only effect, or effect the other way; inactive = flat fitted curve, though single readings scatter. Potencies beside an inconclusive call are fits to weak or partial responses and may not hold up.

Assay: qHTS screen for small molecules that inhibit ELG1-dependent DNA repair in human embryonic kidney (HEK293T) cells expressing luciferase-tagged ELG1; note: nearly all actives have a fitted effect of over 55% in size
Details: HEK293T ELG1-luciferase reporter, luminescence, 16 h, DNA damage induced by 5-fluorouridine; activity change, negative = inhibition: at 46.1 µM (top of the series)
Method in brief: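 Luminescence from the luciferase reporter, measured 30 min after ONE-Glo reagent at room temperature, was the read-out. Beforehand, 2,000 cells per well were exposed for 16 hr at 37 °C to 5-fluorouridine together with compound or vehicle.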
% is set by controls: 0 for no effect and ±100 for the full control effect; potency is the fitted concentration of half-maximal effect.

Compound	Potency	activity change, negative = inhibition
CCn1c(SCC(=O)Nc2ccc(C(C)=O)cc2)nc2ccccc21	inconclusive: 5.8 µM [activator, partial curve, poor fit]	
O=C(C[C@@H]1C/C=C\C[C@H](Cc2ccc(F)cc2)C(=O)OC[C@@H]2CCCN2C1=O)N[C@H](CO)Cc1ccccc1	inconclusive: 29.1 µM [inhibitor, single point]	
CCN(C(=O)c1ccco1)c1nnc(-c2ccc(OC)cc2)s1	inconclusive: 2.59 µM [activator, full curve]	
CN(C)C(=O)/C(=C\c1cccc(Oc2ccccc2)c1)NC(=O)c1ccccc1		inactive: -11.9%
C=CCOc1ccc(C(c2c(C(=O)O)[nH]c3ccccc23)c2c(C(=O)O)[nH]c3ccccc23)cc1		inactive: 3.89%
CC(=O)Nc1cccc(Nc2nc(-c3cccs3)nc3ccccc23)c1	active: 16.4 µM	
Cc1ccccc1/C=N/NC(=O)c1ccc(-n2cnnn2)cc1		inactive: -8.6%
COc1cc(OC)cc(N2C(=O)CC(N3CCC(C(=O)N4CCCCC4)CC3)C2=O)c1 (configuration not stated)		inactive: 19.6%
COc1ccc(-n2c(C)c(C(=O)O)c3cc(OC)c4ccccc4c32)cc1	inconclusive: 29.1 µM [inhibitor, partial curve, poor fit]	
CCOC(=O)c1c(C)[nH]c(C(=O)Nc2ccc(C)c(Cl)c2)c1C	inconclusive: 4.11 µM [activator, partial curve]	
O=[N+]([O-])c1cccc(NN=Nc2ccccc2)c1	inconclusive: 14.6 µM [activator, partial curve]	
CCCn1c(SCC(=O)NC2CCCC2)nnc1C(C)C	inconclusive: 18.3 µM [activator, partial curve, poor fit]	
Cc1nc(-c2ccc(S(=O)(=O)Nc3cc(S(=O)(=O)N(C)C)ccc3C)s2)cs1	inconclusive: 29.1 µM [inhibitor, single point]	
Cc1nnsc1C(=O)NC1CCCc2c1cnn2-c1ccc(C(C)(C)C)cc1 (configuration not stated)		inactive: 1.89%
CCOC(=O)N1CCN(C(=O)CSCC(=O)Nc2nc(-c3ccc(Cl)s3)cs2)CC1	active: 16.4 µM	
S=c1[nH]nc(C2COc3ccccc3O2)o1 (configuration not stated)		inactive: 6.01%
COc1ccc(CCNC(=O)CSc2ccc(-c3cccs3)nn2)cc1OC		inactive: -20.2%
COC(=O)C1CCCCN1C(=O)c1ccc2oc(Cc3ccccc3)nc2c1 (configuration not stated)	inconclusive: 18.3 µM [activator, partial curve]	
O=S(=O)(c1ccc(F)cc1)c1snnc1-c1ccccc1		inactive: -13.1%
O=c1c2ccccc2nc2ccc(NCc3cccs3)nn12	inconclusive: 5.17 µM [activator, full curve]	
O=C(Nc1ccc(CN2CCOCC2)cc1)c1ccc2ccccc2c1	inconclusive: 2.91 µM [activator, partial curve]	
Cc1ccc(NC(=O)CC(=O)Nc2ccc(C)cc2C)c(C)c1		inactive: -22.2%
COc1cnn(-c2ccccc2)c(=O)c1N(C)C	inconclusive: 25.9 µM [activator, single point]	
COc1ccc(OC)c(/C=C2\SC(N3CCCCC3)=NC2=O)c1	inconclusive: 5.17 µM [inhibitor, single point]	

Compound	Potency	activity change, negative = inhibition
O=C(CSc1nnc(-c2cccnc2)n1-c1ccccc1)Nc1ccccn1		inactive: -5.44%
CCOc1ccccc1NC(=O)C(OC(=O)c1cnccn1)c1ccccc1 (configuration not stated)		inactive: 0%
Cc1ccc(Nc2nnc(SCc3cc(=O)n4cc(C)ccc4n3)s2)cc1	inconclusive: 20.6 µM [inhibitor, single point]	
O=C(NNC(=O)C12CC3CC(CC(C3)C1)C2)c1ccccn1	inconclusive: 29.1 µM [activator, single point]	
O=C(N=C1SC2CS(=O)(=O)CC2N1c1cccc(Cl)c1)C1CCCO1 (configuration not stated)	inconclusive: 29.1 µM [activator, partial curve, poor fit]	
O=C1c2cccc3cccc(c23)C(=O)N1c1ccccn1		inactive: 2.18%
Cc1cc2c3c(ccc(C)c3n1)N=CN2c1ccccc1	inconclusive: 23.1 µM [inhibitor, partial curve, poor fit]	
Cc1ccc(C)c(N2CCN(CCCNC(=O)Cn3cc4c(n3)CCC(C)C4)CC2)c1 (configuration not stated)		inactive: -8.15%
CCC(C)C(=O)Nc1nc(C)c(-c2csc(Nc3cc(Cl)ccc3OC)n2)s1 (configuration not stated)	inconclusive: 5.8 µM [inhibitor, partial curve]	
CC1(c2ccccc2)ON(c2ccccc2C(F)(F)F)C1=O (configuration not stated)	inconclusive: 29.1 µM [inhibitor, single point]	
CCc1c(C)nc2ncnn2c1NCCc1ccccc1	inconclusive: 5.8 µM [inhibitor, partial curve]	
CCc1nnc(NS(=O)(=O)c2ccc(NC(=O)c3cccc(Cl)c3)cc2)s1	inconclusive: 7.3 µM [activator, partial curve, poor fit]	
Cc1nc2c(oc3ccccc32)c(=O)o1	inconclusive: 20.6 µM [activator, partial curve]	
CC(=O)Oc1ccc2c(c1)C(=O)c1ccccc1C2=O	inconclusive: 23.1 µM [activator, partial curve]	
COc1ccccc1-c1nnc(NC(=O)C2=COCCO2)o1	inconclusive: 13 µM [activator, partial curve, poor fit]	
CCS(=O)(=O)Nc1ccc(C(=O)NCCSc2ccccc2)cc1	inconclusive: 13 µM [activator, partial curve]	
NC(=O)c1ccsc1NC(=O)COC(=O)c1ccccn1		inactive: 10.3%
Cc1ccc(-c2nn(-c3ccccc3)cc2C(=O)O)o1	inconclusive: 29.1 µM [activator, partial curve, poor fit]	
COc1ccc(C(CNC(=O)c2ccc3c(c2)OCCO3)N(C)C)cc1 (configuration not stated)		inactive: 0.509%
N#CCn1cnc2sc(-c3ccccc3)cc2c1=O	inconclusive: 20.6 µM [activator, single point]	
COc1ccc(-n2nnnc2-c2nc3ccccc3s2)cc1	inconclusive: 1.3 µM [activator, full curve]	
COc1ccccc1N(CC(=O)N(C)Cc1ccccc1)S(=O)(=O)c1cccs1		inactive: -2.04%
COc1ccc(N(CC(=O)NCCC2=CCCCC2)S(=O)(=O)c2ccc(C)cc2)cc1		inactive: -10.7%

Retrieved one by one from the list above:
Compound	Potency	activity change, negative = inhibition
COc1ccc(OC)c(/C=C2\SC(N3CCCCC3)=NC2=O)c1	inconclusive: 5.17 µM [inhibitor, single point]	
O=C(N=C1SC2CS(=O)(=O)CC2N1c1cccc(Cl)c1)C1CCCO1 (configuration not stated)	inconclusive: 29.1 µM [activator, partial curve, poor fit]	
N#CCn1cnc2sc(-c3ccccc3)cc2c1=O	inconclusive: 20.6 µM [activator, single point]	
